Structures can show the parent of a compound that is named as a salt. The list shows a part of the results. Repeats are few or missing, and single values can be far off.

Test [1] relates to Saos-2. Put plainly: cell viability (CCK-8) relative to DMSO control (% of control); higher = less cytotoxic. Particulars: 10 µM; 48 h.
For test [2], the system named is U2OS. Described as above. Particulars: 10 µM; 48 h.

On to `Clc1ccc(CSC(Cn2ccnc2)c2ccc(Cl)cc2Cl)cc1` (stereo not drawn) [Sulconazole Nitrate], for which the figures for the cell viability in test [1] and in test [2] were 108 and 127, respectively.
Regarding `C[N+]1(C)[C@@H]2C[C@@H](OC(=O)C(O)(c3cccs3)c3cccs3)C[C@H]1[C@@H]1O[C@@H]12` [Tiotropium Bromide], the cell viability in test [1] is 63; in test [2] it was 99.8.
For the molecule `CC(=O)Oc1ccccc1C(=O)Nc1ncc([N+](=O)[O-])s1` [Nitazoxanide], the results for the cell viability in test [1] and in test [2] were 106 and 117, respectively.
Take `CC(C)C(=O)OCC(=O)[C@@]12O[C@H](C3CCCCC3)O[C@@H]1C[C@H]1[C@@H]3CCC4=CC(=O)C=C[C@]4(C)[C@H]3[C@@H](O)C[C@@]12C` [Ciclesonide]: the figures for the cell viability in test [1] and in test [2] were 100 and 87.8, respectively.
Consider `OCCN1CCN(CCCN2c3ccccc3Sc3ccc(Cl)cc32)CC1` [Perphenazine], for which the figures for the cell viability in test [1] and in test [2] were 94.9 and 102, respectively.
Take `CC(=O)NC[C@H]1CN(c2ccc(N3CCOCC3)c(F)c2)C(=O)O1` [Linezolid]: the cell viability was 70.4 in test [1] and 110 in test [2].
Take `Cc1cn([C@@H]2C[C@@H](O)[C@H](CO)O2)c(=O)[nH]c1=O` [Telbivudine]: the cell viability came to 105 in test [1] and 99.4 in test [2].
On the same counts, the results for `Cc1ccccc1C(OCCN(C)C)c1ccccc1` (stereo not drawn) [Orphenadrine citrate] are 69.1 and 101.
On to `CCCCS(=O)(=O)N[C@@H](Cc1ccc(OCCCCC2CCNCC2)cc1)C(=O)O` [Tirofiban·HCl monohydrate], for which the cell viability was 107 in test [1] and 104 in test [2].
For `Cc1c2oc3c(C)ccc(C(=O)N[C@@H]4C(=O)N[C@H](C(C)C)C(=O)N5CCC[C@H]5C(=O)N(C)CC(=O)N(C)[C@@H](C(C)C)C(=O)O[C@@H]4C)c3nc-2c(C(=O)N[C@@H]2C(=O)N[C@H](C(C)C)C(=O)N3CCC[C@H]3C(=O)N(C)CC(=O)N(C)[C@@H](C(C)C)C(=O)O[C@@H]2C)c(N)c1=O` [Actinomycin D], the cell viability in test [1] came to 36.6; in test [2] it was 30.2.
For the molecule `C=CC(N)CCC(=O)O` (stereo not drawn) [Vigabatrin], the cell viability in test [1] is 89; in test [2], 86.6.
Regarding `O=C(O)Cc1ccccc1Nc1c(Cl)cccc1Cl` [Diclofenac sodium salt], the cell viability stood at 70 in test [1] and 95.6 in test [2].
As to `CCOC(=O)O[C@]1(C(=O)OCCl)CC[C@H]2[C@@H]3CCC4=CC(=O)C=C[C@]4(C)[C@H]3[C@@H](O)C[C@@]21C` [Loteprednol Etabonate], the cell viability in test [1] was 107; in test [2] it was 103.
On the same counts, the results for `CCCCCCCCCCCCCCCC(=O)O[C@@H]1[C@@H](O)[C@@H](O)[C@@H]([C@H](NC(=O)[C@@H]2C[C@@H](CCC)CN2C)[C@H](C)Cl)O[C@@H]1SC` [Clindamycin Palmitate·HCl] are 60.5 and 104.
The matching figures for `c1ccc2c(CC3=NCCN3)cccc2c1` [Naphazoline·HCl]: 71.2 and 95.7.
The matching figures for `CC(C)(O)c1ccccc1CC[C@@H](SCC1(CC(=O)O)CC1)c1cccc(/C=C/c2ccc3ccc(Cl)cc3n2)c1` [Montelukast·Na]: 54.1 and 111.
As to `CC(=O)N[C@H]1[C@H]([C@H](O)[C@H](O)CO)OC(C(=O)O)=C[C@@H]1NC(=N)N` [Zanamivir], the figures for the cell viability in test [1] and in test [2] were 148 and 81.6, respectively.
Turning to `CC/C(=C(\c1ccccc1)c1ccc(OCCN(C)C)cc1)c1ccccc1` [Tamoxifen . citrate], the figures for the cell viability in test [1] and in test [2] were 59.3 and 104, respectively.
In the case of `CS(=O)(=O)OCCCCOS(C)(=O)=O` [Busulfan], the cell viability stood at 115 in test [1] and 106 in test [2].
With `CCCc1nn(C)c2c(=O)[nH]c(-c3cc(S(=O)(=O)N4CCN(C)CC4)ccc3OCC)nc12` [Sildenafil Citrate], the cell viability in test [1] amounted to 58.6; in test [2], 103.
Turning to `O=C(CCCN1CC=C(n2c(=O)[nH]c3ccccc32)CC1)c1ccc(F)cc1` [Droperidol], the figures for the cell viability in test [1] and in test [2] were 119 and 69.7, respectively.
Take `CC(C[N+](C)(C)C)OC(N)=O` (stereo not drawn) [Bethanechol Chloride]: the cell viability came to 121 in test [1] and 104 in test [2].
On the same counts, the results for `Nc1nc(Cl)nc2c1ncn2[C@H]1C[C@H](O)[C@@H](CO)O1` [Cladribine] are 62.9 and 57.9.
Regarding `Cc1nnc(SCC2=C(C(=O)O)N3C(=O)[C@@H](NC(=O)Cn4cnnn4)[C@H]3SC2)s1` [Cefazolin . sodium], the cell viability in test [1] was 121; in test [2] it was 90.8.
Regarding `CN(C)CCC=C1c2ccccc2C=Cc2ccccc21` [Cyclobenzaprine·HCl], the values for the cell viability in test [1] and in test [2] were 104 and 87.3, respectively.
Consider `Cc1cccc(C)c1NC(=O)C1CCCCN1C` (racemic) [(±)-Mepivacaine hydrochloride], for which the cell viability stood at 104 in test [1] and 103 in test [2].
With `COC(=O)[C@@H]1CC2=CC(=O)CC[C@]2(C)[C@@]23O[C@@H]2C[C@@]2(C)[C@@H](CC[C@@]24CCC(=O)O4)[C@H]13` [Eplerenone], the cell viability in test [1] is 73.5; in test [2], 38.9.
As to `C[C@](N)(Cc1ccc(O)c(O)c1)C(=O)O` [Alpha-methyl-L-dopa sesquihydrate], the cell viability in test [1] stood at 72.3; in test [2], 94.4.
In the case of `CC(C)(C)NC[C@H](O)c1ccc(O)c(CO)c1` [Levalbuterol·HCl], the cell viability in test [1] is 105; in test [2] it was 117.
`NCCCC(N)(C(=O)O)C(F)F` (stereo not drawn) [Eflornithine·HCl]: the cell viability in test [1] was found to be 110; in test [2], 91.
Turning to `C[C@@H](CN1CC(=O)NC(=O)C1)N1CC(=O)NC(=O)C1` [Dexrazoxane], the cell viability in test [1] worked out at 114; in test [2] it was 109.
For the molecule `COc1cc(C(C)=O)ccc1OCCCN1CCC(c2noc3cc(F)ccc23)CC1` [Iloperidone], the cell viability turned out to be 106 in test [1] and 102 in test [2].
Turning to `CNS(=O)(=O)CCc1ccc2[nH]cc(C3CCN(C)CC3)c2c1` [Naratriptan·HCl], the cell viability in test [1] turned out to be 104; in test [2] it was 106.
For `COC1=CC(=O)C[C@@H](C)[C@]12Oc1c(Cl)c(OC)cc(OC)c1C2=O` [Griseofulvin], the cell viability amounted to 106 in test [1] and 89.6 in test [2].
On the same counts, the results for `CC(=O)OCC(=O)[C@@]1(O)CC[C@H]2[C@@H]3CCC4=CC(=O)CC[C@]4(C)[C@H]3C(=O)C[C@@]21C` [Cortisone Acetate] are 109 and 86.
Regarding `CN(C)C(=O)C(CCN1CCC(O)(c2ccc(Cl)cc2)CC1)(c1ccccc1)c1ccccc1` [Loperamide . Hydrochloride], the cell viability in test [1] came to 58.5; in test [2], 115.
Consider `Oc1ccc(C2CNCCc3c2cc(O)c(O)c3Cl)cc1` (stereo not drawn) [Fenoldopam Mesylate], for which the cell viability worked out at 64.4 in test [1] and 105 in test [2].
Turning to `CCS(=O)(=O)CCn1c([N+](=O)[O-])cnc1C` [Tinidazole], the cell viability in test [1] worked out at 66.8; in test [2], 108.
Turning to `O=C1c2c(O)ccc(O)c2C(=O)c2c(NCCNCCO)ccc(NCCNCCO)c21` [Mitoxantrone . dihydrochloride], the values for the cell viability in test [1] and in test [2] were 15.8 and 14.1, respectively.
Turning to `COc1ccc(Cl)cc1C(=O)NCCc1ccc(S(=O)(=O)NC(=O)NC2CCCCC2)cc1` [Glyburide], the cell viability worked out at 71.3 in test [1] and 94.3 in test [2].
In the case of `Nc1cccc2c1CN(C1CCC(=O)NC1=O)C2=O` (stereo not drawn) [Lenalidomide], the results for the cell viability in test [1] and in test [2] were 108 and 84.2, respectively.
On the same counts, the results for `O=C1CN(/N=C/c2ccc([N+](=O)[O-])o2)C(=O)N1` [Nitrofurantoin] are 105 and 86.1.
In the case of `Cc1ccccc1C(=O)Nc1ccc(C(=O)N2CCCC(O)c3cc(Cl)ccc32)c(C)c1` (stereo not drawn) [Tolvaptan], the cell viability in test [1] was 110; in test [2], 92.2.
On to `CC1=C(C/C=C(\C)CCC[C@H](C)CCC[C@H](C)CCCC(C)C)C(=O)c2ccccc2C1=O` [Phytonadione], for which the cell viability in test [1] and in test [2] was 105 each time.
For the molecule `CC[C@@H](CO)NCCN[C@@H](CC)CO` [Ethambutol Dihydrochloride], the cell viability amounted to 101 in test [1] and 89.9 in test [2].
With `C[N+](C)(C)C[C@H](O)CC(=O)[O-]` [Levocarnitine], the cell viability in test [1] was determined as 112; in test [2], 94.6.
For `CN(C)CCCN1c2ccccc2Sc2ccc(Cl)cc21` [Chlorpromazine . Hydrochloride], the cell viability in test [1] was determined as 29.4; in test [2], 72.7.
Turning to `CCCNC(C)C(=O)Nc1ccccc1C` (stereo not drawn) [Prilocaine·HCl], the results for the cell viability in test [1] and in test [2] were 102 and 79.6, respectively.
The matching figures for `Cc1cccc(Nc2ccccc2C(=O)O)c1C` [Mefenamic Acid]: 70.8 and 90.6.
On the same counts, the results for `Oc1c(Cl)cc(Cl)c(Cl)c1Cc1c(O)c(Cl)cc(Cl)c1Cl` [Hexachlorophene] are 73.3 and 68.5.
On the same counts, the results for `COC(=O)[C@H](c1ccccc1Cl)N1CCc2sccc2C1` [Clopidogrel sulfate] are 72.8 and 89.7.
With `Clc1cccc(Cl)c1NC1=NCCN1` [Clonidine . hydrochloride], the cell viability in test [1] amounted to 61.4; in test [2] it was 119.
As for `C[C@@H](NCCCc1cccc(C(F)(F)F)c1)c1cccc2ccccc12` [Cinacalcet·HCl], the cell viability was found to be 69.2 in test [1] and 86.2 in test [2].
The matching figures for `Nc1nc2c(ncn2COC(CO)CO)c(=O)[nH]1` [Ganciclovir]: 67.8 and 99.6.
As for `COc1ccc2c3c1O[C@H]1C[C@@H](O)C=C[C@@]31CCN(C)C2` [Galanthamine . hydrobromide], the results for the cell viability in test [1] and in test [2] were 58.4 and 115, respectively.
For the molecule `Cc1cc(C(=O)NNCc2ccccc2)no1` [Isocarboxazid], the cell viability is 107 in test [1] and 88.6 in test [2].
As for `OC[C@H]1O[C@@H](O[C@@H]2[C@@H](CO)OC(O)(CO)[C@H]2O)[C@H](O)[C@@H](O)[C@H]1O` (mixture of isomers) [Lactulose], the results for the cell viability in test [1] and in test [2] were 117 and 86.6, respectively.
On to `COCCCOc1ccnc(C[S+]([O-])c2nc3ccccc3[nH]2)c1C` (stereo not drawn) [Rabeprazole . Sodium], for which the values for the cell viability in test [1] and in test [2] were 109 and 102, respectively.
On to `Cn1nnc2c(C(N)=O)ncn2c1=O` [Temozolomide], for which the cell viability is 64.8 in test [1] and 106 in test [2].
Turning to `CC(=O)O[C@H]1C[C@@H]2CC[C@@H]3[C@H](CC[C@@]4(C)[C@H]3C[C@H]([N+]3(C)CCCCC3)[C@@H]4OC(C)=O)[C@@]2(C)C[C@@H]1N1CCCCC1` [Vecuronium Bromide], the cell viability in test [1] was found to be 59.7; in test [2], 97.8.
Take `C[C@]12C=CC(=O)N[C@@H]1CC[C@@H]1[C@@H]2CC[C@]2(C)[C@@H](C(=O)Nc3cc(C(F)(F)F)ccc3C(F)(F)F)CC[C@@H]12` [Dutasteride]: the cell viability in test [1] is 109; in test [2] it was 74.4.
With `C[C@]12CCC(=O)C=C1[C@@H]1C[C@@H]1[C@H]1[C@@H]3[C@@H]4C[C@@H]4[C@@]4(CCC(=O)O4)[C@@]3(C)CC[C@@H]12` [Drospirenone], the cell viability worked out at 118 in test [1] and 86.6 in test [2].
`CC(N)C12CC3CC(CC(C3)C1)C2` (stereo not drawn) [Rimantadine·HCl]: the cell viability in test [1] was 65.9; in test [2], 115.
`CC(C)c1c(C(=O)Nc2ccccc2)c(-c2ccccc2)c(-c2ccc(F)cc2)n1CC[C@@H](O)C[C@@H](O)CC(=O)O` [Atorvastatin hemicalcium salt]: the cell viability was 75.2 in test [1] and 82.3 in test [2].

The record behind these values is the supplement of paper PMC9433722.
